The assay has as its system rat vascular smooth muscle cells. The assay is described as follows: cells. As to conditions: 24 h, read-out: ID50.

For `Clc1ccccc1C(c1ccccc1)(c1ccccc1)n1ccnc1` [clotrimazole], the IC50 was approximately 1500 nM.

Source of the values: patent US5633274A, “Cancer treatments” (President and Fellows of Harvard College, priority 1993, dated 1997).
